Hit rate of the full screen: of about 360,000 compounds, about 7,500 (2.1%) were called active. Inconclusive means that the source gave no clear call. Such entries were picked first, then a sample of the others. The call rests on the fitted dose curve; in most records, active means well fitted inhibition curve with a large enough effect; inconclusive means small, poorly fitted or top-dose-only effect, or effect the other way; inactive means flat fitted curve, though single readings scatter. Potencies of inconclusive entries are doubtful fits and often do not repeat.
Assay: Nrf2 qHTS screen for inhibitors; further: nearly all actives have a fitted effect of over 60% in size
Details: A549 ARE-Fluc reporter, luciferase luminescence, 18-24 h; series mostly up to 46 µM
How it was run: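 In this cell-based qHTS, ARE-driven firefly luciferase in A549 cells reports Nrf2 activity; the luminescent signal after BugLite lysis is the measured value, with a prior CellTiter-Fluor read for cell health.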
Potency means the concentration at half of the fitted maximal effect.

Compound | Potency
COc1ccc(NC(=O)c2cncc(Br)c2)c(S(=O)(=O)N2CCOCC2)c1 | inactive
COc1cc2c(cc1OC)C(c1ccc([N+](=O)[O-])cc1)NCC2 (configuration not stated) | inconclusive: 7.31 µM [falling, partial curve, poor fit]
CCOC(=O)c1oc2ccc(S(=O)(=O)n3nc(-c4ccccc4)cc3N)cc2c1C | inconclusive: 8.2 µM [falling, partial curve, poor fit]
O=C(O)CNc1nc(Cl)ccc1[N+](=O)[O-] | inconclusive: 1.64 µM [falling, partial curve, poor fit]
Cc1ccc(NC(=O)c2ccc(CNc3c(N4CCC(C)CC4)c(=O)c3=O)cc2)cc1 | inconclusive: 20.6 µM [falling, partial curve]
Cc1ccc(-c2n[nH]c3c2C(c2cccs2)N(c2ccc(Cl)cc2)C3=O)cc1 (configuration not stated) | inactive
CCC(=O)Nc1nnc(SCC(=O)Nc2ccc(F)cc2)s1 | inconclusive: 11.6 µM [falling, partial curve]
O=S(=O)(c1ccc(=S)[nH]c1)N1CCN(Cc2ccccc2)CC1 | inactive
Clc1ccc(C=NN2CCCCCC2)c(Cl)c1 | inconclusive: 16.4 µM [activator, single point]
Cc1ccc(-c2nc3cc(NC(=O)c4cc(Br)ccc4Cl)ccc3o2)cc1 | inactive
CCOc1ccccc1C(=O)N1CCCCC1CCN1CCOCC1 (configuration not stated) | inactive
CC(C)c1ccc(S(=O)(=O)c2cnc(SCC(=O)Nc3ccc(F)cc3F)nc2N)cc1 | inconclusive: 0.731 µM [activator, full curve]
Cc1cccc(N2CCN(C(=O)c3ccc(CNc4c(N5CCC(C)CC5)c(=O)c4=O)cc3)CC2C)c1 (configuration not stated) | inconclusive: 14.6 µM [falling, partial curve]
Cc1ccc(-c2nnn(CC(=O)N3CCN(c4ccccc4)CC3)n2)o1 | inactive
CCOC(=O)N1CCC(Nc2ncnc3c2cnn3-c2ccc(Cl)cc2)CC1 | inconclusive: 14.6 µM [activator, partial curve]
Cn1ncnc1SCc1cn2cccnc2n1 | inconclusive: 29.1 µM [activator, single point]
O=S(=O)(O)c1cc(Cl)cc(N=Nc2ccc(O)cc2O)c1O | inactive
Cc1onc(-c2c(F)cccc2Cl)c1C(=O)N(Cc1ccccc1)C(C)C | inconclusive: 18.4 µM [falling, single point]
COc1ccccc1C(=O)/C=C/c1ccc(N2CCCCC2)c([N+](=O)[O-])c1 | inconclusive: 32.6 µM [falling, single point]
Cc1ccc(C(=O)C2CCN(C(=S)NCCCOC(C)C)CC2)cc1 | inconclusive: 20.6 µM [falling, partial curve, poor fit]
CCn1cc2nc(SCc3cccc(F)c3)n(CCc3ccccc3)c(=O)c2n1 | active: 23.1 µM
COc1ccc(CCNC(=O)CSc2nnc3ccc(-c4cccnc4)nn23)cc1 | inconclusive: 13 µM [falling, partial curve, poor fit]
CN(C)S(=O)(=O)c1cccc(C(=O)Nc2cc(Cl)cc(Cl)c2)c1 | inconclusive: 29.1 µM [falling, single point]

Copied from the list.
Under Potency, COc1cc2c(cc1OC)C(c1ccc([N+](=O)[O-])cc1)NCC2 (configuration not stated) is entered as inconclusive: 7.31 µM [falling, partial curve, poor fit]
Under Potency, Cc1ccc(-c2nc3cc(NC(=O)c4cc(Br)ccc4Cl)ccc3o2)cc1 is entered as inactive

An excerpt of these results, as labelled records:
O=C(O)CNc1nc(Cl)ccc1[N+](=O)[O-]
  Potency: inconclusive: 1.64 µM [falling, partial curve, poor fit]
Cc1ccc(NC(=O)c2ccc(CNc3c(N4CCC(C)CC4)c(=O)c3=O)cc2)cc1
  Potency: inconclusive: 20.6 µM [falling, partial curve]

Further entries:

Compound | Potency
Clc1cc(NCc2cccs2)ccc1N1CCOCC1 | inconclusive: 14.6 µM [activator, partial curve, poor fit]
Cn1c(=O)c2c(SCC(N)=O)nc(CC(C)(C)C)nc2n(C)c1=O | inconclusive: 29.1 µM [falling, single point]
O=C(O)CCn1ccc2cc(S(=O)(=O)N3CCCCC3)ccc21 | inconclusive: 0.184 µM [falling, full curve, poor fit]
Cc1ccc(-c2nnc(N3CCCCC3)c3ccccc23)cc1S(=O)(=O)N(C)C | inconclusive: 0.092 µM [activator, full curve, poor fit]
CCN(CCCNC(=O)c1[nH]c(C)c(C(C)=O)c1C)c1cccc(C)c1 | inconclusive: 18.4 µM [falling, single point]
CC1=NN(c2ccccc2)C(=O)/C1=C/N(C)C | inactive
Cc1ccc(NC(=O)CNc2ccccc2N2CCCC2=O)cc1S(=O)(=O)N1CCCCC1 | inconclusive: 29.1 µM [falling, single point]
Cc1c(Cl)c([N+](=O)[O-])nn1CC(=O)NC(C)c1ccccc1 (configuration not stated) | inactive
Cc1ccc(CNC(=O)c2cccc(OCc3c(C)noc3C)c2)cc1 | inconclusive: 23.1 µM [falling, partial curve, poor fit]
Cc1cc(C)n2c(Nc3cccc(C(F)(F)F)c3)c(-c3ccsc3)nc2n1 | inconclusive: 29.1 µM [falling, single point]
CC(=O)Nc1cccc(/C(C)=N/NC(N)=S)c1 | inconclusive: 2.91 µM [activator, full curve, poor fit]
COC(=O)Cn1c(=NC(=O)c2cc(-c3cccs3)nc3ccccc23)sc2cc(S(N)(=O)=O)ccc21 | inactive
CC1=NC(=O)C(N=Nc2cccc(C(=O)O)c2)N1c1ccccc1 (configuration not stated) | inconclusive: 4.61 µM [activator, partial curve, poor fit]
O=C(/C=C/c1cccs1)N1CCCCC1 | inconclusive: 23.1 µM [activator, partial curve, poor fit]
COc1cccc(/C=N/NC(=O)c2ccc(N(C)S(=O)(=O)c3ccccc3)cc2)c1OC | inconclusive: 7.31 µM [falling, partial curve]
COc1cccc(-c2c(C(=O)N/N=C/c3ccoc3)nnn2-c2nonc2N)c1 | inconclusive: 4.11 µM [activator, single point]
Cc1cc(CN(C)C(=O)c2cc(COc3ccc(C)c(C)c3)on2)n[nH]1 | inconclusive: 20.6 µM [falling, single point]
COc1ccc(NC(=O)C2CC3CCC2C3)c(OC)c1 (configuration not stated) | inconclusive: 4.11 µM [activator, full curve]
COc1cc(NS(=O)(=O)c2ccc(-c3cc(C)no3)cc2)cc(OC)c1 | active: 6.51 µM
O=C(/C=C/c1cccs1)c1cc(Br)ccc1OC(=O)N1CCOCC1 | inconclusive: 20.6 µM [falling, single point]
O=S(=O)(c1ccc2c(Cl)cccc2c1)N1CCN(c2nc(-c3cccs3)nc3ccccc23)CC1 | inactive
Cc1nnsc1NC(=O)OCc1ccc(C(F)(F)F)cc1 | inconclusive: 23.1 µM [falling, partial curve, poor fit]
O=C(c1cn(-c2ccc(Cl)c(Cl)c2)nn1)C1CC1 | inconclusive: 29.1 µM [activator, single point]

Compound | Potency
O=C(c1ccccc1)c1ccc2c(c1)OCCCO2 | inconclusive: 3.66 µM [activator, full curve]
CN(CC(=O)Nc1cccc(F)c1)C(=O)c1ccc(COc2ccccc2)cc1 | inconclusive: 29.1 µM [falling, single point]
Fc1ccc(-c2nc(-c3cnccn3)no2)c(Cl)c1 | inconclusive: 1.84 µM [activator, full curve, poor fit]
COc1cc(-c2ccc3c(=O)c4ccccc4n(C)c3c2)cc(OC)c1OC | active: 13 µM
COCCCNc1nc2nonc2nc1NCCSC | inconclusive: 13 µM [falling, partial curve]
O=C(Nc1ccccc1)c1ccc(-c2ccccc2Cl)o1 | inconclusive: 9.2 µM [activator, partial curve]
C/C(=N\NC(=O)c1sccc1C)c1cccnc1 | inconclusive: 25.9 µM [activator, single point]
CC(/C=C/c1ccco1)=N/NC(=O)OC(C)(C)C | inconclusive: 9.2 µM [activator, partial curve, poor fit]
CCOC(=O)C1CCCN(C(=O)CCc2nnc(-c3ccc(C(C)=O)s3)o2)C1 (configuration not stated) | inconclusive: 1.16 µM [activator, full curve]
C/C(=N\NC(=O)c1cc(-c2ccc(Br)s2)[nH]n1)c1ccncc1 | inconclusive: 0.92 µM [activator, partial curve]
O=C(N/N=C/c1ccccc1[N+](=O)[O-])c1cnccn1 | inconclusive: 29.1 µM [activator, single point]
Nc1nc(N)c2sc3nc(C(F)(F)F)cc(C(F)(F)F)c3c2n1 | inconclusive: 29.1 µM [falling, single point]
Cc1cc(C(=O)CSc2ccc(F)cc2)cc(C)c1OC(=S)N(C)C | inconclusive: 2.91 µM [activator, full curve]
Cc1ccc(SCc2nc(-c3ccc(C(=O)NCC(C)c4ccccc4)cc3)oc2C)cc1 (configuration not stated) | active: 9.2 µM
O=C1CCC[C@@H]2CC(Nc3ccc(F)cc3F)C[C@@H]3CCN1[C@H]23 (some centres not stated) | inconclusive: 32.6 µM [falling, single point]
CCC(=O)N(CC)C1=C(O)c2ccccc2C(=O)C1=O | inactive
CCc1noc(C)c1C(=O)Nc1nc2c(F)cc(F)cc2s1 | inconclusive: 6.51 µM [activator, partial curve, poor fit]
OC1(c2ccc(Cl)c(Cl)c2)C[n+]2ccccc2N1Cc1ccccc1 (configuration not stated) | inconclusive: 29.1 µM [activator, single point]
CCOc1ccc(N2C(=O)C(CC(=O)Nc3ccccc3)N(Cc3ccccn3)C2=S)cc1 (configuration not stated) | active: 23.1 µM
COC(=O)c1cncc(O)c1 | inconclusive: 5.8 µM [activator, partial curve, poor fit]
COc1ccc(CCNC(=O)c2coc(=O)c(Br)c2)cc1 | inconclusive: 20.6 µM [activator, single point]

Source: PubChem BioAssay AID504444 (National Center for Advancing Translational Sciences (NCATS), 2011)
